Experiments:
[1] = Fmoc solid-phase peptide synthesis; H-Leu-Wang resin; TBTU/HOBt with diisopropylethylamine; DIC/HOBt for Fmoc-Gly-Gly-OH; details: whole synthesis, scale 250 g resin
[2] = general procedure: Fmoc solid-phase peptide synthesis; H-Leu-2-Cl-Trt resin; TBTU/HOBt with diisopropylethylamine; DIC/HOBt for Fmoc-Gly-Gly-OH; details: whole synthesis
[3] = general procedure: Fmoc solid-phase peptide synthesis; H-Leu-Wang resin; TBTU/HOBt with diisopropylethylamine; DIC/HOBt for Fmoc-Gly-Gly-OH; details: whole synthesis
[4] = Fmoc solid-phase peptide synthesis; H-Leu-2-Cl-Trt resin; TBTU/HOBt with diisopropylethylamine; DIC/HOBt for Fmoc-Gly-Gly-OH; details: whole synthesis

With Bivalirudin the crude mass [1] was 470 g, the “final HPLC purity” value ([2]; run 1) was over 99.0% and the “final HPLC purity” value ([2]; run 3) was over 97.5%. For the same substance, the isolated mass ([2]; scale 3.0 Kg resin) was 960 g, the isolated mass ([2]; scale 4.5 Kg resin) was 1.7 kg and the “final HPLC purity” value ([3]; HPLC, run 2) was over 99.0%. The isolated mass ([3]; scale 250 g resin) was 92 g, the crude mass ([4]; scale 3.0 Kg resin) was 4.9 kg and the crude mass ([4]; scale 4.5 Kg resin) was 7.6 kg.

Source: US20110160431 (published 2011)
